Assay results taken from publication PMC10924340.
Results are given in words; binding and its absence hold for the method and conditions named. Binding seen in cells or lysates may run through a third protein. Some results given as binding are weak or reduced against the parent protein; the word gives no strength. Where a sequence is shown, tags or fusion partners need not be part of it.

Biological target: T1, Flag-LATS2 (large tumor suppressor kinase 2) (UniProt Q9NRM7)
T1 sequence: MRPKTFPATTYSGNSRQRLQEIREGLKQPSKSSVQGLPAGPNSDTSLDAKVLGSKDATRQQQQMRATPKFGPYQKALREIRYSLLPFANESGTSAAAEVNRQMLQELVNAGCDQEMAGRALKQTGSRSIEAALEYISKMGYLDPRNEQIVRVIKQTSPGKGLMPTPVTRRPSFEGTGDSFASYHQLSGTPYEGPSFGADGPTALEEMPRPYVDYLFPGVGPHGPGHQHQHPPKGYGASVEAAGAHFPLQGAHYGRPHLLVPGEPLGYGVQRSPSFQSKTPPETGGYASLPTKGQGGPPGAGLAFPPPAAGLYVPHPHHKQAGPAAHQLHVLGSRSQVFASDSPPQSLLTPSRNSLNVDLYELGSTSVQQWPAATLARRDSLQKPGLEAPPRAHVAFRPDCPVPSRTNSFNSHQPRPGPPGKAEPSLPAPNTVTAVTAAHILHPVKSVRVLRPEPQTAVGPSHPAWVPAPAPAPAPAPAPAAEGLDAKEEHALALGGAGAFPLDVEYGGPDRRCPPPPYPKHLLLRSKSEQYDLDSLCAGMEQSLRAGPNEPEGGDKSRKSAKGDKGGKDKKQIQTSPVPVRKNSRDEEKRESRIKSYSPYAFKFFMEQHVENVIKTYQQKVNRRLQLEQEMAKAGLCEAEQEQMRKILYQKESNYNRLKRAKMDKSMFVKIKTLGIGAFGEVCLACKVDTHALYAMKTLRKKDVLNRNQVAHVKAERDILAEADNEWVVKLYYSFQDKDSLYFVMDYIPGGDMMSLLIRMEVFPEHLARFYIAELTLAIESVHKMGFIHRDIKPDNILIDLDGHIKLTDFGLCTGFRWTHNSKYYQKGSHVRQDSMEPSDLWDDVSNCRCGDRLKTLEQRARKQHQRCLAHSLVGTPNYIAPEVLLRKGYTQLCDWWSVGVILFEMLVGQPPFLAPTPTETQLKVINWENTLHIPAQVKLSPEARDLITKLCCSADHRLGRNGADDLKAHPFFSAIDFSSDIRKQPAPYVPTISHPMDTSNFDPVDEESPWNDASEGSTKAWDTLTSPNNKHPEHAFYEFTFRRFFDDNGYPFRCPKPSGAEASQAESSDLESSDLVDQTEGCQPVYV
Experiment: co-IP; cells transfected, lysed in IP buffer after 48 h, mixed with pre-incubated beads for 16 h, washed three times, protein on beads denatured and western blotted

B1: SIAH2 (seven in absentia homolog 2), E3 ligase (enzyme, UniProt O43255 1-324)
chain: MSRPSSTGPSANKPCSKQPPPQPQHTPSPAAPPAAATISAAGPGSSAVPAAAAVISGPGGGGGAGPVSPQHHELTSLFECPVCFDYVLPPILQCQAGHLVCNQCRQKLSCCPTCRGALTPSIRNLAMEKVASAVLFPCKYATTGCSLTLHHTEKPEHEDICEYRPYSCPCPGASCKWQGSLEAVMSHLMHAHKSITTLQGEDIVFLATDINLPGAVDWVMMQSCFGHHFMLVLEKQEKYEGHQQFFAIVLLIGTRKQAENFAYRLELNGNRRRLTWEATPRSIHDGVAAAIMNSDCLVFDTAIAHLFADNGNLGINVTISTCCP
For B1, which binding is on record?
Its binding is “binds”.
